Experimental data reported in PubChem BioAssay AID330 (DTP/NCI, 2004).
The list does not hold the whole screen: it gathers tests that were run many times, whatever their T/C, doses with no T/C, and many T/C values between a quarter and a half above the control. Other doses and runs of a compound stand elsewhere. T/C: endpoint of the treated group in % of that of the vehicle group. Some doses have a count of surviving animals in place of a T/C: the source holds a T/C of zero for them, seemingly a mark for toxic or unscored doses. Some doses without a T/C left all or most animals alive at the check, yet need not have been tolerated: the source hardly ever lists a survival T/C far under the control, and the zero likely stands for such cases as well. Survivors were counted at the toxicity check, usually on the fifth day, unless a day is given; later deaths do not show. Schedule codes are those of the source, taken here to give the interval after Q, in days (D) or hours (H), and the number of doses after X. Some entries hold several experiments; the values are given in rising order. Where survival is the endpoint, this PubChem deposit counts one and a half times the control or more as active, and values a quarter to a half above the control carry no call in these data; other NCI protocols may use other cut-offs. Marks such as (2×) count equal records among those shown.

System: P388 leukemia ip, CD2F1 mice, survival T/C
Test: NCI In Vivo Anticancer Drug Screen. Data for tumor model P388 Leukemia (intraperitoneal) in CD2F1 (CDF1) mice
Conditions: T/C endpoint: median survival time, higher T/C = longer survival
[1] = dose: 12.5 mg/kg/injection, schedule: Q01DX009 (ip), vehicle: Klucel (hydroxypropylcellulose) (HPC)
[2] = dose: 25.0 mg/kg/injection, schedule: Q01DX009 (ip), vehicle: Klucel (hydroxypropylcellulose) (HPC)
[3] = dose: 50.0 mg/kg/injection, schedule: Q01DX009 (ip), vehicle: Klucel (hydroxypropylcellulose) (HPC)
[4] = dose: 100.0 mg/kg/injection, schedule: Q01DX009 (ip), vehicle: Klucel (hydroxypropylcellulose) (HPC)
[5] = dose: 100.0 mg/kg/injection, schedule: Q01DX009 (ip), vehicle: saline with Tween-80
[6] = dose: 200.0 mg/kg/injection, schedule: Q01DX009 (ip), vehicle: Klucel (hydroxypropylcellulose) (HPC)
[7] = dose: 200.0 mg/kg/injection, schedule: Q01DX009 (ip), vehicle: saline with Tween-80
[8] = dose: 25.0 mg/kg/injection, schedule: Q01DX005 (ip), vehicle: saline with Tween-80
[9] = dose: 50.0 mg/kg/injection, schedule: Q01DX005 (ip), vehicle: saline with Tween-80
[10] = dose: 100.0 mg/kg/injection, schedule: Q01DX005 (ip), vehicle: saline with Tween-80
[11] = dose: 200.0 mg/kg/injection, schedule: Q01DX005 (ip), vehicle: saline with Tween-80
[12] = dose: 240.0 mg/kg/injection, schedule: Q01DX005 (ip), vehicle: saline with Tween-80
[13] = dose: 60.0 mg/kg/injection, schedule: Q01DX005 (ip), vehicle: saline with Tween-80
[14] = dose: 120.0 mg/kg/injection, schedule: Q01DX005 (ip), vehicle: saline with Tween-80
[15] = dose: 200.0 mg/kg/injection, schedule: Q01DX005 (ip), vehicle: Klucel (hydroxypropylcellulose) (HPC)
[16] = dose: 50.0 mg/kg/injection, schedule: Q01DX005 (ip), vehicle: Klucel (hydroxypropylcellulose) (HPC)

With `NC(CSC(c1ccccc1)(c1ccccc1)c1ccccc1)C(=O)O` (stereo not given) the T/C (dose: 3.13 mg/kg/injection, schedule: Q01DX009 (ip), vehicle: saline with Tween-80) was 125 % of control, the T/C (dose: 6.25 mg/kg/injection, schedule: Q01DX009 (ip), vehicle: saline with Tween-80, evaluated on day 20) was 141 % of control and the T/C (dose: 6.25 mg/kg/injection, schedule: Q01DX009 (ip), vehicle: saline with Tween-80, evaluated on day 30) was 132 % of control. For the same molecule, the T/C (dose: 6.25 mg/kg/injection, schedule: Q01DX009 (ip), vehicle: water) was 131 % of control, the T/C (dose: 8.0 mg/kg/injection, schedule: Q01DX009 (ip), vehicle: water) was 131, 140, 145 % of control and the T/C (dose: 12.0 mg/kg/injection, schedule: Q01DX009 (ip), vehicle: water) was 145 % of control. For the same molecule, the T/C [1] was 138 % of control, the T/C (dose: 12.5 mg/kg/injection, schedule: Q01DX009 (ip), vehicle: saline with Tween-80, evaluated on day 20) was 137 % of control and the T/C (dose: 12.5 mg/kg/injection, schedule: Q01DX009 (ip), vehicle: saline with Tween-80, evaluated on day 30) was 138, 151, 168 % of control. The T/C (dose: 12.5 mg/kg/injection, schedule: Q01DX009 (ip), vehicle: water) was 126 and 145 % of control, the T/C [2] was 142 % of control and the T/C (dose: 25.0 mg/kg/injection, schedule: Q01DX009 (ip), vehicle: water) was 127 and 146 % of control. For the same molecule, the T/C (dose: 40.0 mg/kg/injection, schedule: Q01DX009 (ip), vehicle: water) was 127 % of control, the T/C [3] was 141 % of control and the survivor count (dose: 60.0 mg/kg/injection, schedule: Q01DX009 (ip), vehicle: water) was 9 of 10 and 10 of 10. For the same molecule, the survivor count (dose: 90.0 mg/kg/injection, schedule: Q01DX009 (ip), vehicle: water) was 0 of 10 and 8 of 10, the survivor count [4] was 6 of 6 and the T/C [5] was 138 % of control (2×). For the same molecule, the survivor count [5] was 5 of 6 and 6 of 6, the survivor count (dose: 100.0 mg/kg/injection, schedule: Q01DX009 (ip), vehicle: water) was 0 of 10, 7 of 10, 6 of 6 and the survivor count (dose: 150.0 mg/kg/injection, schedule: Q04DX003 (ip), vehicle: Klucel (hydroxypropylcellulose) (HPC)) was 6 of 6. For the same molecule, the T/C (dose: 160.0 mg/kg/injection, schedule: Q01DX001 (ip), vehicle: water) was 127 % of control, the survivor count [6] was 6 of 6 and the survivor count [7] was 2 of 6. For the same molecule, the T/C (dose: 200.0 mg/kg/injection, schedule: Q01DX009 (oral), vehicle: saline with Tween-80) was 135 % of control and the survivor count (dose: 400.0 mg/kg/injection, schedule: Q01DX009 (oral), vehicle: saline with Tween-80) was 4 of 6.
For `O=[N+]([O-])c1ccc(N(CCO)CCO)c2c1no[n+]2[O-]`, the T/C (dose: 3.12 mg/kg/injection, schedule: Q01DX005 (ip), vehicle: saline with Tween-80) was 125 % of control, the T/C (dose: 6.25 mg/kg/injection, schedule: Q01DX005 (ip), vehicle: saline with Tween-80) was 128 % of control and the T/C (dose: 12.5 mg/kg/injection, schedule: Q01DX005 (ip), vehicle: saline with Tween-80) was 129 and 134 % of control. The T/C [8] was 131 % of control (2×), the T/C (dose: 32.0 mg/kg/injection, schedule: Q04DX003 (ip), vehicle: saline) was 129 % of control and the T/C [9] was 131 and 145 % of control. For the same molecule, the T/C (dose: 64.0 mg/kg/injection, schedule: Q04DX003 (ip), vehicle: saline) was 146 % of control.
With `c1cnc2nsnc2c1` the survivor count [4] was 5 of 6 and the survivor count [6] was 0 of 6.
`CCC1(c2ccccc2)OCC(C2CCCCN2)O1` (stereo not given) was tested, and the survivor count [6] was 0 of 6.
In the case of `C=C(C(=O)N(C(C)C)C(C)C)C(C)C(C)(C)O` (stereo not given), the survivor count (dose: 200.0 mg/kg/injection, schedule: Q04DX002 (ip), vehicle: Klucel (hydroxypropylcellulose) (HPC)) was 0 of 6 and the survivor count (dose: 400.0 mg/kg/injection, schedule: Q04DX002 (ip), vehicle: Klucel (hydroxypropylcellulose) (HPC)) was 0 of 6.
In the case of `C/C(=N\NC(=S)N1CCC(C)CC1)c1nccs1`, the survivor count [9] was 4 of 6, the survivor count [10] was 0 of 6 and the survivor count [11] was 0 of 6.
In the case of `Brc1cc(Br)c2ccccc2c1OCC1CO1` (stereo not given), the survivor count [2] was 5 of 6 and the survivor count [4] was 6 of 6.
With `CN(C)[C@@H]1C(=O)C(C(N)=O)=C(O)[C@@]2(O)C(=O)C3=C(O)c4c(O)ccc(Cl)c4[C@@](C)(O)[C@H]3C[C@@H]12.[Cl][Sb]([Cl])[Cl]` the T/C [8] was 127 % of control, the survivor count [10] was 1 of 6 and the survivor count [11] was 0 of 6.
With `O=C1CCCC2OC12` (stereo not given) the survivor count (dose: 400.0 mg/kg/injection, schedule: Q04DX002 (ip), vehicle: saline) was 0 of 6.
For `CC(=O)c1ccc2c(=O)n3c4ccccc4nc3c3cccc1c23`, the survivor count [7] was 6 of 6.
With `CC12CC3CC(C)(C1)CC(OCCN)(C3)C2` the survivor count [12] was 0 of 6.
For `COC(=O)C1=C(C)NC(C)=C(C(=O)OCCCN2CCC(c3ccccc3)(c3ccccc3)CC2)C1c1cccc([N+](=O)[O-])c1` (stereo not given), the survivor count [13] was 0 of 6, the survivor count [14] was 0 of 6 and the survivor count [12] was 0 of 6.
`CCOC(=O)/C=C/C(=O)N1CCN(C(=O)/C=C/C(=O)OCC)C(C)C1` (stereo not given) was tested, and the T/C [15] was 125 and 126 % of control and the T/C (dose: 300.0 mg/kg/injection, schedule: Q01DX005 (ip), vehicle: Klucel (hydroxypropylcellulose) (HPC)) was 130 % of control.
`COC(=O)c1ccc(N=NN(C)CN=[N+]=[N-])cc1` was tested, and the T/C [16] was 130 and 134 % of control and the survivor count [15] was 0 of 6.
With `CN(C(=S)S(C)(=O)=O)c1ccccc1` the survivor count [1] was 4 of 6, the survivor count [2] was 0 of 6 and the survivor count [3] was 0 of 6. For the same molecule, the survivor count [4] was 0 of 6 and the survivor count [6] was 0 of 6.
With `Clc1ccnc2ccc3ncccc3c12` the survivor count (dose: 25.0 mg/kg/injection, schedule: Q04DX002 (ip), vehicle: saline with Tween-80) was 2 of 6, the survivor count (dose: 50.0 mg/kg/injection, schedule: Q04DX002 (ip), vehicle: saline with Tween-80) was 0 of 6 and the survivor count (dose: 100.0 mg/kg/injection, schedule: Q04DX002 (ip), vehicle: saline with Tween-80) was 0 of 6.
In the case of `CCCCCCC1(/C=C/c2ccc(Cl)c(Cl)c2)OCCS1` (stereo not given), the survivor count (dose: 100.0 mg/kg/injection, schedule: Q01DX009 (ip), vehicle: saline) was 1 of 6 and the survivor count (dose: 200.0 mg/kg/injection, schedule: Q01DX009 (ip), vehicle: saline) was 0 of 6.
For `COC1/C=C\OC2(C)Oc3c(C)c(O)c4c(O)c(c5[nH]c(-c6ccccc6)nc5c4c3C2=O)NC(=O)/C(C)=C\C=C\C(C)C(O)C(C)C(O)C(C)C(OC(C)=O)C1C` (stereo not given), the survivor count [6] was 0 of 6.
For `COC1=CC(=O)c2ncccc2C1=O`, the survivor count (dose: 50.0 mg/kg/injection, schedule: Q01DX009 (ip), vehicle: DMSO) was 1 of 6 and the survivor count (dose: 100.0 mg/kg/injection, schedule: Q01DX009 (ip), vehicle: DMSO) was 0 of 6.
With `O=c1oc(-c2ccc(Cl)cc2Cl)nc2cc(Cl)ccc12` the survivor count [12] was 0 of 6.
In the case of `COc1cc([C@@H]2c3cc4c(cc3[C@H](OC(=O)c3ccccc3C(=O)O)[C@H]3COC(=O)[C@H]23)OCO4)cc(OC)c1OC`, the T/C [16] was 128 and 130 % of control, the survivor count (dose: 100.0 mg/kg/injection, schedule: Q01DX005 (ip), vehicle: Klucel (hydroxypropylcellulose) (HPC)) was 1 of 6 and 3 of 6 and the survivor count [15] was 0 of 6.
With `O=C(CSc1nnc(CSc2ccc(Cl)cc2)n1-c1ccccc1)NC(=O)Nc1ccccc1` the survivor count [13] was 6 of 6 and the survivor count [14] was 6 of 6.
